Laboratory results: PubChem BioAssay AID652243 (Drosophila RNAi Screening Center, 2013)
The screen tested about 24,000 reagents; this is a random part of those with a known target gene and a result. Of all reagents, 246 (1%) are marked active. 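Plates not normalised; calls are printed but the firefly/Renilla ratio behind them is not deposited; fold cut for lowering reported inconsistently.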 The raw values are shown without normalisation. A number with no mark means an inactive call. The numbers tell different reagents against one gene apart. Names joined by + are all predicted targets of the reagent. Not stated in the record: the amount of reagent.

- Test: 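Fly regulators of androgen-dependent reporter output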 (primary screen)
- Cells: Drosophila S2R+ cells
- Reagents: long dsRNA against Drosophila genes
- Time to read-out: 72 h (48 h, then 24 h hormone)
- Treatment: synthetic androgen R1881 at 10 nM for 24 h
- Measurement: 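Firefly light from an androgen-responsive reporter and Renilla control light per well, raw and unnormalised, for each of two replicates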
- Scale: firefly reporter light: higher = more light from androgen-responsive reporter; Renilla control light: higher = more constitutive control signal (cell number, transfection)
- Call rule: 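Hit when the log firefly-to-Renilla ratio dropped or increased by a fixed fold versus the mean of GFP or LacZ controls across duplicate plates; lowering cut given as 1.5 and as 3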
- Calls: active = hit: reporter lowered or raised; inactive = no hit

| predicted target | reagent no. | firefly reporter light, replicate 1 | firefly reporter light, replicate 2 | Renilla control light, replicate 1 | Renilla control light, replicate 2 |
| --- | --- | --- | --- | --- | --- |
| Tango9 | 1 | 63109 | 48940 | 4.16e5 | 3.35e5 |
| AOX3 | 1 | 73887 | 1.05e5 | 5.58e5 | 6.03e5 |
| CG33270 | 1 | 8.85e5 | 8.65e5 | 1.61e6 | 1.42e6 |
| dare | 1 | 1.04e6 | 1.45e6 | 7.72e5 | 1.16e6 |
| CG31922 | 1 | 7.09e5 | 7.33e5 | 2.40e6 | 2.47e6 |
| CG31922 | 2 | 3.06e5 | 2.14e5 | 5.00e5 | 6.93e5 |
| mRpS16 | 1 | 69537 | 96352 | 1.53e6 | 1.53e6 |
| Sry-alpha | 1 | 1.25e5 | 1.26e5 | 1.13e6 | 1.96e6 |
| Sry-alpha | 2 | 4.39e5 | 4.16e5 | 1.02e6 | 1.10e6 |
| galectin | 1 | 1.23e5 | 71919 | 4.70e5 | 6.78e5 |
| myd | 1 | 2.80e5 | 2.79e5 | 2.21e6 | 2.77e6 |
| CG6094 | 1 | 5.13e5 | 5.60e5 | 1.65e6 | 1.36e6 |
| CG6094 | 2 | 9.59e5 | 6.88e5 | 1.67e6 | 1.33e6 |
| CG6094 | 3 | 3.44e5 | 3.80e5 | 1.15e6 | 1.21e6 |
| CG31741 | 1 | 91827 | 1.77e5 | 1.35e6 | 2.12e6 |
| COX6AL2 + Ir75d | 1 | 1.83e5 | 1.50e5 | 2.25e6 | 1.49e6 |
| sinah | 1 | 3.86e5 | 3.04e5 | 3.32e6 | 2.92e6 |
| sinah | 2 | 7.32e5 | 6.00e5 | 2.55e6 | 1.85e6 |
| DNAlig1 | 1 | 1.02e6 | 7.75e5 | 1.23e6 | 1.19e6 |
| CG8219 | 1 | 2.11e5 | 1.94e5 | 2.13e6 | 1.77e6 |
| CG8219 | 2 | 9.82e5 | 1.08e6 | 9.36e5 | 9.37e5 |
| ppk25 | 1 | 2.67e5 | 2.01e5 | 2.03e6 | 1.30e6 |
| ppk25 | 2 | 2.70e5 | 2.24e5 | 2.83e5 | 6.06e5 |
| CG30427 | 1 | 1.57e5 | 1.84e5 | 4.18e5 | 3.70e5 |
| CG30427 | 2 | 1.78e6 | 8.20e5 | 2.62e6 | 2.12e6 |
| CG30427 | 3 | 2.80e5 | 2.29e5 | 1.38e6 | 1.22e6 |
| CG30427 | 4 | 3.07e5 | 2.44e5 | 6.62e5 | 6.64e5 |
| mbt | 1 | 4.08e5 (active) | 4.29e5 | 1.80e6 | 2.24e6 |
| mbt | 2 | 3.73e5 | 5.29e5 | 8.61e5 | 7.59e5 |
| Cpr47Ea | 1 | 5.00e5 | 3.41e5 | 2.75e6 | 2.06e6 |
| CG6847 | 1 | 6.65e5 | 3.62e5 | 2.60e5 | 2.11e5 |
| CG6847 | 2 | 6.14e5 | 5.39e5 | 3.09e6 | 3.08e6 |
| Sgsh | 1 | 2.24e5 | 1.35e5 | 2.44e6 | 1.87e6 |
| cag | 1 | 3.70e5 | 2.00e5 | 1.88e6 | 1.75e6 |
| cag | 2 | 5.45e5 | 4.37e5 | 1.26e6 | 1.03e6 |
| eIF3a | 1 | 74629 | 1.02e5 | 2.23e6 | 1.52e6 |
| eIF3a | 2 | 4.06e5 | 5.87e5 | 4.61e5 | 9.69e5 |
| CG18469 | 1 | 4.74e5 | 4.90e5 | 1.50e6 | 1.71e6 |
| CG33189 | 1 | 6.59e5 | 7.49e5 | 2.32e6 | 2.06e6 |
| CG33189 | 2 | 2.88e5 | 2.74e5 | 8.65e5 | 9.05e5 |
| CG5890 | 1 | 7.16e5 | 7.72e5 | 2.92e6 | 2.70e6 |
| PSMG1 | 1 | 42138 | 40163 | 4.60e5 | 4.22e5 |
| PSMG1 | 2 | 2.54e5 | 4.66e5 | 9.07e5 | 1.18e6 |
| Jon25Bii | 1 | 1.44e5 | 88676 | 1.59e6 | 5.48e5 |
| Jon25Bii | 2 | 5.51e5 | 3.99e5 | 8.12e5 | 6.70e5 |
| yellow-f2 | 1 | 80295 | 81284 | 5.80e5 | 7.40e5 |
| yellow-f2 | 2 | 2.33e5 | 2.26e5 | 3.24e5 | 2.10e5 |
| ProtB | 1 | 1.33e5 | 1.51e5 | 1.56e6 | 1.60e6 |
| ProtB | 2 | 2.78e5 | 3.03e5 | 7.53e5 | 7.80e5 |
| Cyp6d4 | 1 | 1.04e5 | 1.19e5 | 1.10e6 | 1.25e6 |
| Cyp6d4 | 2 | 4.02e5 | 2.61e5 | 6.23e5 | 3.10e5 |
| Bicra | 1 | 93736 | 52955 | 1.60e6 | 1.79e6 |
| Bicra | 2 | 1.05e6 | 1.11e6 | 9.12e5 | 1.07e6 |
| swaPsi | 1 | 7.55e5 | 7.72e5 | 1.80e6 | 1.52e6 |
| boca | 1 | 3.91e5 | 4.66e5 | 1.31e6 | 1.35e6 |
| CG34188 | 1 | 9.65e5 | 9.71e5 | 1.86e6 | 1.86e6 |
| CR16735 | 1 | 1.58e5 | 1.78e5 | 2.57e6 | 1.77e6 |
| CG16719 | 1 | 8.64e5 | 5.82e5 | 8.48e5 | 1.26e6 |
| CG7135 | 1 | 3.77e5 | 3.00e5 | 3.54e6 | 2.37e6 |
| CG7135 | 2 | 8.42e5 | 6.10e5 | 1.35e6 | 1.70e6 |
| Rack1 | 1 | 2.10e5 | 2.31e5 | 2.41e6 | 1.88e6 |
| Rack1 | 2 | 6.11e5 | 4.29e5 | 7.01e5 | 6.91e5 |
| CG7182 | 1 | 9.67e5 | 1.34e6 | 1.14e6 | 1.38e6 |
| CG7182 | 2 | 8.82e5 | 8.51e5 | 8.87e5 | 1.33e6 |
| CG13423 | 1 | 77263 | 1.28e5 | 1.24e6 | 1.30e6 |
| karr | 1 | 2.65e5 | 3.19e5 | 6.28e5 | 6.41e5 |
| ClC-b | 1 | 1.51e5 | 1.11e5 | 1.06e6 | 1.16e6 |
| CG8188 | 1 | 4.14e5 | 4.87e5 | 1.65e6 | 1.92e6 |
| CG8188 | 2 | 1.82e5 | 1.82e5 | 4.25e5 | 6.54e5 |
| CG33630 | 1 | 77487 | 1.10e5 | 1.35e6 | 9.74e5 |
| CG14357 | 1 | 78555 | 1.48e5 | 1.97e6 | 2.07e6 |
| CG14357 | 2 | 4.43e5 | 4.22e5 | 2.02e6 | 2.01e6 |
| CG12662 | 1 | 3.59e5 | 4.35e5 | 3.50e6 | 3.05e6 |
| RPA2 | 1 | 1.43e6 | 1.30e6 | 3.11e6 | 2.46e6 |
| RPA2 | 2 | 5.29e5 | 3.71e5 | 1.52e6 | 1.47e6 |
